This is an account of results in the supplement of paper PMC11732987, “Enantioselective OTUD7B fragment discovery through chemoproteomics screening and high-throughput optimisation” (Communications Chemistry, 2025).

Protein sequences, listed by entry. Tags and fused reporters are not part of them. Lines headed by an entry give the natural chain unless they say otherwise; changes in a name come on top. Residues count along the entry.
UniProt P48449: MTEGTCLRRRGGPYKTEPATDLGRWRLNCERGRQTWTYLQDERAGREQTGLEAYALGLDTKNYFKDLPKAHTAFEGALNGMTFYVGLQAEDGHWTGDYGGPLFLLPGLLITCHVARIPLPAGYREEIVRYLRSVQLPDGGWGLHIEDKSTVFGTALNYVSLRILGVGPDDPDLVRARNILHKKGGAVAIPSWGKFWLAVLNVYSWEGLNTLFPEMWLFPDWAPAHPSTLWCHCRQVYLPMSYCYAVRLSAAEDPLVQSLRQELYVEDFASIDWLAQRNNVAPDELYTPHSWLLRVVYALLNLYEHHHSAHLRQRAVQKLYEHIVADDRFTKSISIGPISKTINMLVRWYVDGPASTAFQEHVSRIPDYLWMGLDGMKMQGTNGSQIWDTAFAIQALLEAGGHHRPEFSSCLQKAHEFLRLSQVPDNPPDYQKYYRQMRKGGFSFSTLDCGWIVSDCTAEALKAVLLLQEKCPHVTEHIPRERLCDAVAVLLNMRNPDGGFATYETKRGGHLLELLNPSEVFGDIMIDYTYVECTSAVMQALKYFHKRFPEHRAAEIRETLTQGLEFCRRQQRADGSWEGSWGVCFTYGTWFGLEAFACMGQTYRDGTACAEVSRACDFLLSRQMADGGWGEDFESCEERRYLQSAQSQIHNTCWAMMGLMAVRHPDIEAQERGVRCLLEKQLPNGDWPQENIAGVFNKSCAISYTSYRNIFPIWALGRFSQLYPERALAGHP
UniProt Q9HCC0, 249-268: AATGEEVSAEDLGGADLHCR
UniProt P31153, 103-125: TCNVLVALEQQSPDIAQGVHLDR
UniProt Q96L34: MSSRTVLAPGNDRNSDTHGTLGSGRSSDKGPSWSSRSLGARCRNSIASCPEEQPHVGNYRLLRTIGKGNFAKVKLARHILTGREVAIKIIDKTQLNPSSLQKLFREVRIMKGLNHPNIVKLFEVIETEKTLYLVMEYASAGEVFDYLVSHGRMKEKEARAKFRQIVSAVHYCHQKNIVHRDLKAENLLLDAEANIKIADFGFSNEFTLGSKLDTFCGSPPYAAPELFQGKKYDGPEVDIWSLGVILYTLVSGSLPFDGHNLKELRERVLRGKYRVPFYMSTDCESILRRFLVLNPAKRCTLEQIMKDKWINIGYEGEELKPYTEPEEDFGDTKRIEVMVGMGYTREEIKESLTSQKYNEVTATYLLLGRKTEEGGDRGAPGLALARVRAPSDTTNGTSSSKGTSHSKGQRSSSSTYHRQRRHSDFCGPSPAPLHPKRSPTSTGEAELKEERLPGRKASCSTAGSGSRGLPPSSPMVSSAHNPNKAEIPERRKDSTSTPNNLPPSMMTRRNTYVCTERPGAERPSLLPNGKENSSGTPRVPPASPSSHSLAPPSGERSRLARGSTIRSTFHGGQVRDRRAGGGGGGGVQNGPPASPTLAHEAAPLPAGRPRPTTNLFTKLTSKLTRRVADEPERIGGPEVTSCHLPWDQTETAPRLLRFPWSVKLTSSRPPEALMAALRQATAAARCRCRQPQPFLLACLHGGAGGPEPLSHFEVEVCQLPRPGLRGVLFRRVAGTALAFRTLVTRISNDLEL
UniProt Q9Y6R4: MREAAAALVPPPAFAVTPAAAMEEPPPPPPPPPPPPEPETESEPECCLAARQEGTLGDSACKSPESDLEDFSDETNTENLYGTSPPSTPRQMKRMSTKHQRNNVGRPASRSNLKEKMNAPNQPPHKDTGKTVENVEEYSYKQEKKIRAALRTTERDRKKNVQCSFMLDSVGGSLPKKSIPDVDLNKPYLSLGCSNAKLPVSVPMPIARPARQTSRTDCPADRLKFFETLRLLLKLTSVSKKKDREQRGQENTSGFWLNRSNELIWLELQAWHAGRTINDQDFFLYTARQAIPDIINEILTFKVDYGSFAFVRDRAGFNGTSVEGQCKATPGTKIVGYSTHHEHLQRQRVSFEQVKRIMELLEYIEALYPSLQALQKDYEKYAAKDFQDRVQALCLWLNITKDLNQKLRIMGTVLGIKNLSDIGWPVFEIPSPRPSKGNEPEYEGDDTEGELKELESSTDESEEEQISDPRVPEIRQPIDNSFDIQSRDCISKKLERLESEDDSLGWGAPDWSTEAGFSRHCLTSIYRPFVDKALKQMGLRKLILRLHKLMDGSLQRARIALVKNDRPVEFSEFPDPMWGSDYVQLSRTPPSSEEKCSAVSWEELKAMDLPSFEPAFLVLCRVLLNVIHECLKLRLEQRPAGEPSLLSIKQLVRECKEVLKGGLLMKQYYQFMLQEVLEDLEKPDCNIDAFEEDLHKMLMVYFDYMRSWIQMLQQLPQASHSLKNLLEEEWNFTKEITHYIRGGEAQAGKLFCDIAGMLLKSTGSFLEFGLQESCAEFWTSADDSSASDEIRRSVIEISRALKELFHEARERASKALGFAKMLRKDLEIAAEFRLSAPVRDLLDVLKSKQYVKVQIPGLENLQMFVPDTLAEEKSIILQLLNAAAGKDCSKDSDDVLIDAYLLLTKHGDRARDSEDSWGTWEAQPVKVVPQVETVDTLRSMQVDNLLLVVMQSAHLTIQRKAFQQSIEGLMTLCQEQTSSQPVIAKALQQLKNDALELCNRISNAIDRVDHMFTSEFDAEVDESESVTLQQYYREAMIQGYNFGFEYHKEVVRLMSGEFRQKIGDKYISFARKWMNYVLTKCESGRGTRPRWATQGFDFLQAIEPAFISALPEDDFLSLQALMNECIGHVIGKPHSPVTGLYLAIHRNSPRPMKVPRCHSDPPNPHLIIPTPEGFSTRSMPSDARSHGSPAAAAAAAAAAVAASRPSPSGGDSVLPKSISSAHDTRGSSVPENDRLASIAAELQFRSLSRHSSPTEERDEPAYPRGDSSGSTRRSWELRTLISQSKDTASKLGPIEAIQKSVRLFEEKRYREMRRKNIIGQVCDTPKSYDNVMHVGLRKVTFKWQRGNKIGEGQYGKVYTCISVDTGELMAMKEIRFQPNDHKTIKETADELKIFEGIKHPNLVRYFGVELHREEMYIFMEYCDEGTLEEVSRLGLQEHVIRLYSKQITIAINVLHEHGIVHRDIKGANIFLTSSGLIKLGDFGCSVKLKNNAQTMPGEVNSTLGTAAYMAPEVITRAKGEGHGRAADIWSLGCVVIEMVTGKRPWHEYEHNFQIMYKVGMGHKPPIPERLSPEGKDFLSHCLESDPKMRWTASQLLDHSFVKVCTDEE
UniProt Q66K74: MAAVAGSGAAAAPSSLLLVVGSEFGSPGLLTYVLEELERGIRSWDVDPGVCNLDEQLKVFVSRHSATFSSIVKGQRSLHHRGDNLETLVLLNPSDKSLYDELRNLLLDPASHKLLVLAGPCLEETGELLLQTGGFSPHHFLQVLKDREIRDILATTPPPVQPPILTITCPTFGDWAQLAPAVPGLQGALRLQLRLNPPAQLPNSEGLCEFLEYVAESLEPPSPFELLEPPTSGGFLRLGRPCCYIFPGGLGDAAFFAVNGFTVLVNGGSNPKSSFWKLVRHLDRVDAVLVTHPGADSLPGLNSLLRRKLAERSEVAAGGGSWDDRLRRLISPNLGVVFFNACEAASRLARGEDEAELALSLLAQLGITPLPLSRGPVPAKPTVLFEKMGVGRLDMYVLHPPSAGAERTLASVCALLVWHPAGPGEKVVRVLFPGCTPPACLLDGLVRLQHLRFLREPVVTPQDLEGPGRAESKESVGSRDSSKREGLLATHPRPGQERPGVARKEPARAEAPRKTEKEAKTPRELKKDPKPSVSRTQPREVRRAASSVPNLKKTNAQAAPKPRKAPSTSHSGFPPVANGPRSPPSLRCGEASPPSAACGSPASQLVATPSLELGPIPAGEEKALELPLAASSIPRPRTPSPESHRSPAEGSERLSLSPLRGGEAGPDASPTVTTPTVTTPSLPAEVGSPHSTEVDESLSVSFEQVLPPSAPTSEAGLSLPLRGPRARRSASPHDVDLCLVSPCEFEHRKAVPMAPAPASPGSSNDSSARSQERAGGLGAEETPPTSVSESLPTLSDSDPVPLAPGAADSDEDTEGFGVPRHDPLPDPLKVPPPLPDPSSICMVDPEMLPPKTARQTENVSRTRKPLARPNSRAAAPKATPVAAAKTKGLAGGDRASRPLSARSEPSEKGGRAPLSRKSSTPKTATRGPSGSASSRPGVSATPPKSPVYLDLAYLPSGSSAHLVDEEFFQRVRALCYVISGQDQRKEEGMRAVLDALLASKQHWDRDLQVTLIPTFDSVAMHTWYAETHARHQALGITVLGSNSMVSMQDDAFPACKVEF
UniProt P09960: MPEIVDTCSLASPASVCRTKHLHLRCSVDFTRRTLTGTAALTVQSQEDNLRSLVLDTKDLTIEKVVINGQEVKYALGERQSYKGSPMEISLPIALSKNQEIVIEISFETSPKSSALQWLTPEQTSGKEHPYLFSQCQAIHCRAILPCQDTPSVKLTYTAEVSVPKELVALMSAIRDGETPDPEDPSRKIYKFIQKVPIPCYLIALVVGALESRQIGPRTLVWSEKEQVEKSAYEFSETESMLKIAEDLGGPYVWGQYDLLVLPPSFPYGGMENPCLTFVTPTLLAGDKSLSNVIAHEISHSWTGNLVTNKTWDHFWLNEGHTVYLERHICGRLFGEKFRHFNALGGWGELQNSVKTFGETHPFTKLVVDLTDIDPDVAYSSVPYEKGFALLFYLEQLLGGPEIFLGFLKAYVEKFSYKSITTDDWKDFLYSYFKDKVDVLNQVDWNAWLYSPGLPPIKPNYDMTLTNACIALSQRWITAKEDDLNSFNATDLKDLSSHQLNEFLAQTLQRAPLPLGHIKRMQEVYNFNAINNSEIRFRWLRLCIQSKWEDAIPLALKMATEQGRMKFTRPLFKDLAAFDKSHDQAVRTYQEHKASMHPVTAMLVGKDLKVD
UniProt P23508: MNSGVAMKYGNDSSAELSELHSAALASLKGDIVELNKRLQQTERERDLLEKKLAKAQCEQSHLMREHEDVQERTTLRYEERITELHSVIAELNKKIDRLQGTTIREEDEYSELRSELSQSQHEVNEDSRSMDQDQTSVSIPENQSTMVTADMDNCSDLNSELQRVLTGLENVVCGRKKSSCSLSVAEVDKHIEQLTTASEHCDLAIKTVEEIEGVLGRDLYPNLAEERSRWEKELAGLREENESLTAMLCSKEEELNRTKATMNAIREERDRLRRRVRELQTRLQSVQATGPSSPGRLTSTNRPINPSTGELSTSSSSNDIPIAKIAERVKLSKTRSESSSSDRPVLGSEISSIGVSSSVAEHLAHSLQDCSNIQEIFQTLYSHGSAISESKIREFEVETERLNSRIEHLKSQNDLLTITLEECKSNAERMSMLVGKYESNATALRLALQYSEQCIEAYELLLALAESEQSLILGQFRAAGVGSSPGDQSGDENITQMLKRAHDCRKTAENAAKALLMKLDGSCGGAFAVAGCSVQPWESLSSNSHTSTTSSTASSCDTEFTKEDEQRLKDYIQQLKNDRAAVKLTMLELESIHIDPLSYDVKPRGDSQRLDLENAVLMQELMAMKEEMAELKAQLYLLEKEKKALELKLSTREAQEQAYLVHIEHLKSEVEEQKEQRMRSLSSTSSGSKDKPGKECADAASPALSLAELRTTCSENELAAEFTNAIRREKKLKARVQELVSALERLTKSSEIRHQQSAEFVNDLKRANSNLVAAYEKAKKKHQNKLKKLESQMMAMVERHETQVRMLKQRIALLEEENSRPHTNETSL
UniProt Q9BPZ7: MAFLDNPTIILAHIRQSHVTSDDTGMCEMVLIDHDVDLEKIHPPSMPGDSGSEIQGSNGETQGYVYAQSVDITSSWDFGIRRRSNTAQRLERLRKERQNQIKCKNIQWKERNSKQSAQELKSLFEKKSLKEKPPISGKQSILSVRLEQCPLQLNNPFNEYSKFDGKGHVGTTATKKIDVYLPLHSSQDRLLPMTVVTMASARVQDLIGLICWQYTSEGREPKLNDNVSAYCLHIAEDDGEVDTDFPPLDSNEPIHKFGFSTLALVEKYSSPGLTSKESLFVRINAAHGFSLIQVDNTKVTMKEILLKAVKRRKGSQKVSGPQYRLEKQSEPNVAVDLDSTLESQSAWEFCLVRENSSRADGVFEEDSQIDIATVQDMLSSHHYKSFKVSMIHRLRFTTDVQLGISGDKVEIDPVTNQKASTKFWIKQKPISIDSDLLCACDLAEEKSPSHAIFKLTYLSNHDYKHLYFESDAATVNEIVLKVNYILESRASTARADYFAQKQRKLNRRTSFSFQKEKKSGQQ
UniProt Q9UPY8, whole entry, looked up: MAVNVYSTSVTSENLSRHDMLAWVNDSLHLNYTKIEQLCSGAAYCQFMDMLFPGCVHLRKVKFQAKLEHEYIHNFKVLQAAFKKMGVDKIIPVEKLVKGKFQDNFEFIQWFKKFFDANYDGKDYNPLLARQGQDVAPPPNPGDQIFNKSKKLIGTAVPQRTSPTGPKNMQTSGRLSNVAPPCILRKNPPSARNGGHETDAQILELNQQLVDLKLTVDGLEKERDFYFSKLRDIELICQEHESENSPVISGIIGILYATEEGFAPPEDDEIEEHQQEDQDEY

Compound in experiment [1]: ClCC(=O)N[C@@H]1CCCc2ccccc12
Description: log2 mean competition ratio of IA-DTB cysteine labelling (DMSO/compound) (log2 ratio); higher = stronger cysteine engagement by compound. The following applies: treatment time: 4 h, cell line lysate: HEK293T. The protocol: (§1)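 IA-DTB competitive cysteine chemoproteomics in HEK293T RIPA lysate. Lysates were treated with compound 29 or 30 at 50 or 200 µM for 4 h, then IA-DTB (500 µM, 1 h), trypsin-digested, NeutrAvidin-enriched and analysed by diaPASEF. Competition ratio = intensity DMSO / intensity compound (n=4 treated, n=64 DMSO); binding: mean log2 CR ≥ 1 and p ≤ 0.05 plus QC filters. Target is the cysteine site.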

Compound in experiment [2]: ClCC(=O)N[C@H]1CCCc2ccccc12
Described as above. The following applies: treatment time: 4 h, cell line lysate: HEK293T. The protocol:
as §1

Some of the results follow. The data scatter; read single values as rough.

Regarding LSS C609 (UniProt P48449), the “log2 mean competition ratio” value was -0.215 in experiment [1] (50 µM), -0.0518 in experiment [1] (200 µM), -0.274 in experiment [2] (50 µM) and 0.0483 in experiment [2] (200 µM).
As to MCCC2 C267 (UniProt Q9HCC0), the “log2 mean competition ratio” value is -0.302 in experiment [1] (50 µM), 0.0631 in experiment [1] (200 µM), 0.0394 in experiment [2] (50 µM) and 0.162 in experiment [2] (200 µM).
The like results for MARK2 C723 were, in that order, 0.24, -0.103, -0.0301 and -0.212.
The like results for MAT2A C104 (UniProt P31153) were, in that order, -0.139, 0.229, 0.215 and -0.339.
With MATR3 C552 (UniProt P43243), the “log2 mean competition ratio” value in experiment [1] (50 µM) is -0.15; in experiment [1] (200 µM), -0.0755; in experiment [2] (50 µM) it was -0.709; in experiment [2] (200 µM), -0.118.
The like results for MARK4 C459 (UniProt Q96L34) were, in that order, -0.0413, 0.162, 0.0769 and 0.297.
For LYPLA2 C56 (UniProt O95372), the “log2 mean competition ratio” value in experiment [1] (50 µM) is 0.338; in experiment [1] (200 µM), -0.165; in experiment [2] (50 µM), 0.401; in experiment [2] (200 µM), -0.182.
In the case of MAP3K4 C326 (UniProt Q9Y6R4), the “log2 mean competition ratio” value in experiment [1] (50 µM) is -0.0587; in experiment [1] (200 µM), 0.0635; in experiment [2] (50 µM), -0.227; in experiment [2] (200 µM), 0.231.
Taken in the same sequence, the figures for MAP4 C635 were 0.0159, -0.0188, 0.0443 and -0.00586.
The like results for LRRC20 C32 (UniProt Q8TCA0) were, in that order, -0.24, 0.0715, -0.195 and 0.0667.
Taken in the same sequence, the figures for MAP1S C51 (UniProt Q66K74) were -0.327, -0.0776, -0.0997 and -0.00352.
Take LTA4H C147 (UniProt P09960): the “log2 mean competition ratio” value in experiment [1] (50 µM) was -0.29; in experiment [1] (200 µM), 0.118; in experiment [2] (50 µM), -0.27; in experiment [2] (200 µM) it was 0.146.
Taken in the same sequence, the figures for MAGEE1 C429 were 0.305, -0.241, 0.0442 and -0.0959.
Taken in the same sequence, the figures for MCC C202 (UniProt P23508) were -0.141, 0.185, -0.404 and 0.122.
Taken in the same sequence, the figures for MAPKAP1 C149 (UniProt Q9BPZ7) were 1.04, -0.0608, 0.57 and -0.67.
With MAPRE3 C182 (UniProt Q9UPY8), the “log2 mean competition ratio” value was -0.000916 in experiment [1] (50 µM), -0.0104 in experiment [1] (200 µM), 0.19 in experiment [2] (50 µM) and 0.0135 in experiment [2] (200 µM).
The like results for MACF1 C986 were, in that order, -0.126, -0.0315, -0.298 and -0.0542.
